No constants are given. Whether binding was seen depends on the method and setting. Tags and fused reporters may be left off the sequences shown.
Target: T1, WT KcsA (K channel of streptomyces A), full-length, with N-terminal His-tag (Streptomyces lividans) (UniProt P0A334)
T1 sequence: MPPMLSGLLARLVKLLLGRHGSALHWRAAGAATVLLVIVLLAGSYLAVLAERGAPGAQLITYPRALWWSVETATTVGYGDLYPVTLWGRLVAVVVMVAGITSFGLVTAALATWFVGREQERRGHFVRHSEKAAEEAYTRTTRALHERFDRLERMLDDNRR
Assay: ELISA; both purified

B1: Kaliotoxin-1 displayed on M13 phage as a fusion to the P3 coat protein (peptide, UniProt P24662 1-38)
chain: GVEINVKCSGSPQCLKPCKDAGMRFGKCMNRKCHCTPK
Q: With B1 as the binder, how does the binding read?
A: Its binding is “no binding”.

B2: Hongotoxin-1 displayed on M13 phage as a fusion to the P3 coat protein (peptide, UniProt P59847 1-39)
chain: TVIDVKCTSPKQCLPPCKAQFGIRAGAKCMNGKCKCYPH
Q: How did the binding turn out when B2 was run?
A: The binding was “no binding”.

— publication PMC11002876, “KcsA-Kv1.x chimeras with complete ligand-binding sites provide improved predictivity for screening selective Kv1.x blockers” (The Journal of Biological Chemistry, 2024)
